Measured values from article PMC10163288.
The list shows a part of the results.

B1: il2ra_site1_2b5i_normal_mot_HHH_b1_03896_000000019_0001_1_17_H_._ems_3hC_1310_0001_0000100013_0000001_0_af2pred_dldesign_0_af2pred (protein)
chain: AEDRALLERLEAAHKRAGAANDDELEAALEDAARALERTRRTRDAAARAAARAAAEAVIARALES
B2: il2ra_site1_1z92_sap_8_mot_a31c9f16200a66e5ad31ddff700483a3_0001_1_000000069_0001_19_32_H_._HHH_b1_03395_0001_0000300021_0000001_0_0001_af2pred_0001_af2pred_1 (protein)
chain: PEELAEEARELLENGNPEEARKVLEKLAKELGTEEAFKLDLERAERFTGNPEVALKALIAALARH
B3: il2ra_site2_2erj_sap_19_mot_HHH_b2_02646_000000001_0001_40_53_H_._HHH_b2_01480_0001_0000200016_0000001_0_0001 (protein)
chain: SSSSDELRRLFKLASELMELVTRGDEERFREVAEEVEELVEKLNSENAREILEWLERQIKSSSSS
B4: il2ra_site1_1z92_normal_mot_818a9d7520499bc24e5218c3ec3bba43_0001_000000166_0001_34_49_H_._66959ead3e6c57cb3ef8243f3eb758e0_0001_1_af2_0001_0000300024_0000001_0 … (protein)
chain: SASEEDLREAVEKNDEELLEEFIEFLLKTAGDPKFVEAFLRLLVRRLGLPPEVLEKLRELLEELT
B5: il2ra_site1_2b5i_normal_mot_HHH_b1_02015_af2_000000003_0001_1_19_H_._HHH_b2_05139_af2_0001_0000500042_0000001_0_af2pred_dldesign_0_af2pred (protein)
chain: SSSSDEVYDKIDELYKKALELKRAGKKEEAKKLLEEALELAKAANDEKAVAELEKLLELISSSSS
B6: il2ra_site1_2b5i_sap_16_mot_e0aa41e34d15cf2e554e57505dcbb35d_0001_af2_000000009_0001_53_65_H_._HEEHE_2612_0001_0000300030_0000001_0_0001_af2pred_0001_af2pred (protein)
chain: SSSSDEDEEVTELFREASELYRRGNPEEAEKLLERAAELAEKLGDELVLEDIRRFLELIKSSSSS
B7: il2ra_site1_1z92_normal_mot_8b466c8ab6a4ea9d290724e70e8647ea_0001_000000211_0001_54_65_H_._2874ac36c98298a0dc4d99a960bb3065_0001_af2_0001_0000400048_0000001_0_a … (protein)
chain: TEEFLAEQVIRKIKAGNEEAVEKLVEKLSKASGVPPEEVLKFLLQLLRELGDPEAVEFIEELLRR
B8: il2ra_site2_3nfp_normal_mot_HHH_b1_02297_000000279_0001_41_58_H_._HHH_b2_01981_af2_0001_0000300015_0000001_0_af2pred_0001_af2pred (protein)
chain: SSSSSDEEEVRKEVEKLLEQAEKVDEEEAERLLLRAALLAVELNDFELYAAVNEAMLRLLSSSSS
B9: il2ra_site1_3nfp_sap_16_mot_HHH_b1_02961_000000081_0001_1_18_H_._HHH_b2_07522_0001_0000200013_0000001_0_0001 (protein)
chain: SSSSDTARKANRLLREVMELKKNGNPEEARRLLEELAKELEERGDEVALFLVRQYLRLIEESSSS
B10: il2ra_site2_2erj_sap_16_mot_HHH_b2_03659_000000135_0001_38_56_H_._HHH_b1_00300_0001_0000300021_0000001_0_0001 (protein)
chain: SSSSSLRESYELAVRLTRALAEGDEELIRKLREEIRELAEETNSENLEEILESLERLFHSSSSSS
B11: il2ra_site2_2erj_normal_mot_HHH_b2_07568_000000046_0001_18_34_H_._HHH_b2_00320_af2_0001_0000400008_0000001_0 (protein)
chain: SSSSSSEEVEELLERAEELLEEGDPEQAISLLAEAALLALHLGDPIAEEIRRLAEKVFELSSSSS
B12: il2ra_site1_2b5i_sap_8_mot_HHH_b2_00318_000000002_0001_42_56_H_._HHH_b2_03364_af2_0001_0000100002_0000001_0_0001_af2pred_dldesign_0_af2pred (protein)
chain: SSSSSSKEEELKEEIQKLCDEASKLPPEEANRLLYEALVLARKAKNPELIALVEAAAKKLSSSSS
B13: il2ra_site1_3nfp_normal_mot_136a1b26558f6d63e39c8b7f62c9aa34_0001_af2_000000044_0001_17_31_H_._HHH_b2_04513_0001_0000600033_0000001_0_af2pred_0001_af2pred_1 (protein)
chain: SSSSDLEERVEELLREAEEAAEEGDAQRVDRLVKEALKLADELGNPELKELIRRVMEKLAKSSSS
B14: il2ra_site1_1z92_normal_mot_01209686ea234b34325f918445e6eade_0001_af2_000000154_0001_18_33_H_._HHH_b2_03766_af2_0001_0000200011_0000001_1 (protein)
chain: SSSSSDLEEFAQEVVERLVEELGLSEEVKEALKRDAELLVRLGFSERSLERALKLHAERDSSSSS
B15: il2ra_site1_3nfp_sap_11_mot_9895c1d898f6985d52506ef494acec2a_0001_1_af2_000000173_0001_18_31_H_._HHH_b2_08375_0001_0000500014_0000001_0_0001 (protein)
chain: TLEEYVEKAEEALRDDPEVQEALEKLLKLAEEDPDNKEVAELIIKLVALAQHDREEARKLAEEIK
B16: il2ra_site2_3nfp_sap_36_mot_HHH_b1_07764_000000013_0001_24_39_H_._41bf9513afb4a9f800fdbd9786f8515b_0001_0001_0000100004_0000001_0_0001 (protein)
chain: SSSSDRSEEYLKAALALLEELVERGDEEFFERHLELVRLAAEDANDEEVRERLEELRELIKSSSS
B17: il2ra_site2_2erj_normal_mot_HHH_b2_01275_af2_000000073_0001_23_39_H_._HHH_b1_03892_af2_0001_0000200008_0000001_1 (protein)
chain: SSSSDEELRELYELAVRLLRLLFEGDEEKIKELLREVQELAEKLQSQAAERLVEEVEKKLSSSSS
B18: il2ra_site1_1z92_normal_mot_1581cc1c700002558836ca695aafbf97_0001_1_af2_000000099_0001_17_32_H_._HHH_b2_05050_0001_0000200017_0000001_0_af2pred_0001_af2pred (protein)
chain: SSSSDEEVERLVEELVEEFNLSEEEEKELRRIARSAEELGADPELVKKALEHFVEFLKRKGSSSS
B19: il2ra_site2_3nfp_normal_mot_HHH_b1_03818_000000217_0001_1_20_H_._HHH_b1_03372_af2_0001_0000500027_0000001_0 (protein)
chain: SSSSDEEKLRELEEEIEELIKEGDKYEVFQLVAELSELAARLQDEEAVKFVIEVYEWLKGSSSSS

The binders below were run against il2ra, P01589 (assay: yeast display titration).

Apparent Kd, inactive:
B1 no binding seen, B2 no binding seen, B3 no binding seen, B4 no binding seen, B5 no binding seen, B6 no binding seen, B7 no binding seen, B8 no binding seen, B9 no binding seen, B10 no binding seen, B11 no binding seen, B12 no binding seen, B13 no binding seen, B14 no binding seen, B15 no binding seen, B16 no binding seen, B17 no binding seen, B18 no binding seen, B19 no binding seen
